Source: paper PMC4285326, “Structure and interactions of the Bacillus subtilis sporulation inhibitor of DNA replication, SirA, with domain I of DnaA” (Molecular Microbiology, 2014)
Results are given in words; binding and its absence hold for the method and conditions named.

Target: DnaA domain I (DnaA^DI), Bacillus subtilis, His-tag removed (B. subtilis) (UniProt P05648)
Experiment: SEC-MALS; Superdex 75 HR 10/30, 50 mM Tris pH 8.5, 200 mM KCl, 0.5 ml min^-1; DnaA^DI at 1.0, 2.5 and 5.0 mg ml^-1; SirA-DnaA^DI at 0.5, 1.0 and 2.5 mg ml^-1; both purified

B1: DnaA domain I (DnaA^DI), Bacillus subtilis, His-tag removed (domain or fragment, B. subtilis)
chain: GPAMENILDLWNQALAQIEKKLSKPSFETWMKSTKAHSLQGDTLTITAPNEFARDWLESRYLHLIADTIYELTGEELSIKFVIPQ
notes: DnaA, B. subtilis, domain I (N-terminal domain); residues 1-81 defined in the crystal, C-terminal Gln82 disordered; Calculated molecular mass 9.7 kDa; also called N-terminal domain of DnaA; not shown: His6, N-terminal, cleaved
With B1 the binding was “no binding (tested: 1, 2.5 and 5 mg ml^-1)”.
